According to the supplement of paper PMC12067093, “Discovery and optimisation of a covalent ligand for TRIM25 and its application to targeted protein ubiquitination” (Chemical Science, 2025):
Some of the results follow.

Protein sequences, listed by entry. Tags and fused reporters are not part of them. Lines headed by an entry give the natural chain unless they say otherwise; changes in a name come on top.
UniProt Q9H2Y7: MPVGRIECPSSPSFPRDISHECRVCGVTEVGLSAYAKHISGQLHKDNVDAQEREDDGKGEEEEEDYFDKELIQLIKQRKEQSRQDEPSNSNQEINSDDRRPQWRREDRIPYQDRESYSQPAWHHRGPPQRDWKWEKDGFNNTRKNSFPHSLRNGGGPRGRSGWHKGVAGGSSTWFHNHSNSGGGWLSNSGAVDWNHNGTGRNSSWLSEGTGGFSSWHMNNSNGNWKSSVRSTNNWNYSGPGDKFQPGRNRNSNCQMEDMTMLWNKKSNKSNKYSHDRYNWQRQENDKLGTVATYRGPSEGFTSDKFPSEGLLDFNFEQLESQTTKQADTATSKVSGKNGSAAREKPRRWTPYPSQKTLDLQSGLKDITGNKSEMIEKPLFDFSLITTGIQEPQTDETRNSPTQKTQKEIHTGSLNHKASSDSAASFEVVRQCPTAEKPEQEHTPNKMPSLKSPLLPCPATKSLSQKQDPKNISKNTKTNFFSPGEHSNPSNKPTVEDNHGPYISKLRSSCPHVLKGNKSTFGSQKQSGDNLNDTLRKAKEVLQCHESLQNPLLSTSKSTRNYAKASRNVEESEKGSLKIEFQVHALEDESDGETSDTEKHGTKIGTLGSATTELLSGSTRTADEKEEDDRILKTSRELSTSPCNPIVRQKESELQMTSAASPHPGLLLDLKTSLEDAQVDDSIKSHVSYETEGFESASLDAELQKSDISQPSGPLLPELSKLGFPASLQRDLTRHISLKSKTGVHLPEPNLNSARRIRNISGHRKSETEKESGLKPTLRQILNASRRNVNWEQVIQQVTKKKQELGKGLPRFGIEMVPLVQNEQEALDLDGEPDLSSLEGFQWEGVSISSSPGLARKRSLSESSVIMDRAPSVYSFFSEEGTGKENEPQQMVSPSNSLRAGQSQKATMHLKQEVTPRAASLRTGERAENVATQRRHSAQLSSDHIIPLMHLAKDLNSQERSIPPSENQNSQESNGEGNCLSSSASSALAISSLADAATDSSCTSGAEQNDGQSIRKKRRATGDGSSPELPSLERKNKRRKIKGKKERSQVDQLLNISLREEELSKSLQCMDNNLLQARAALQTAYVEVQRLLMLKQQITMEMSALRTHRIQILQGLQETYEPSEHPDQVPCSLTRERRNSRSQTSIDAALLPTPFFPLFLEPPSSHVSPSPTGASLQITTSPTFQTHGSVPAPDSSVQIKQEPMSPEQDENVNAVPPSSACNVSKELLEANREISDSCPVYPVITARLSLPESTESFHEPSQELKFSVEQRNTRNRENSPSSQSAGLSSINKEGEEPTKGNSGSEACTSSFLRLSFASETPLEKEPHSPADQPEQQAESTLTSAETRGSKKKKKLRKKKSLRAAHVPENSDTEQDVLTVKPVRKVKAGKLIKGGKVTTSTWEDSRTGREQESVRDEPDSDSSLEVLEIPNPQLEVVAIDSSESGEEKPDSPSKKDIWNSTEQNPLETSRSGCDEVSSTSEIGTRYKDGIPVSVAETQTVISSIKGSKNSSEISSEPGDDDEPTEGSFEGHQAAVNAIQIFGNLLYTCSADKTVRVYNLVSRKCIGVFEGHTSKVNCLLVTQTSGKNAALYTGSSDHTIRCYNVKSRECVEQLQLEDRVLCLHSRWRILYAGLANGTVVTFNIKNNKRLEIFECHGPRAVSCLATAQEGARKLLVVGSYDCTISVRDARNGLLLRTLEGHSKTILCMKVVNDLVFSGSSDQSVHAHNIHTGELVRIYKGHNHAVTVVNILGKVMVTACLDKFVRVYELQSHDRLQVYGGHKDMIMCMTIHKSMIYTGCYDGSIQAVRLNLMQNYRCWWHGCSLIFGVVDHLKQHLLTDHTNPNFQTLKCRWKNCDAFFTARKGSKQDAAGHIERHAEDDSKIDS
UniProt Q5BKZ1: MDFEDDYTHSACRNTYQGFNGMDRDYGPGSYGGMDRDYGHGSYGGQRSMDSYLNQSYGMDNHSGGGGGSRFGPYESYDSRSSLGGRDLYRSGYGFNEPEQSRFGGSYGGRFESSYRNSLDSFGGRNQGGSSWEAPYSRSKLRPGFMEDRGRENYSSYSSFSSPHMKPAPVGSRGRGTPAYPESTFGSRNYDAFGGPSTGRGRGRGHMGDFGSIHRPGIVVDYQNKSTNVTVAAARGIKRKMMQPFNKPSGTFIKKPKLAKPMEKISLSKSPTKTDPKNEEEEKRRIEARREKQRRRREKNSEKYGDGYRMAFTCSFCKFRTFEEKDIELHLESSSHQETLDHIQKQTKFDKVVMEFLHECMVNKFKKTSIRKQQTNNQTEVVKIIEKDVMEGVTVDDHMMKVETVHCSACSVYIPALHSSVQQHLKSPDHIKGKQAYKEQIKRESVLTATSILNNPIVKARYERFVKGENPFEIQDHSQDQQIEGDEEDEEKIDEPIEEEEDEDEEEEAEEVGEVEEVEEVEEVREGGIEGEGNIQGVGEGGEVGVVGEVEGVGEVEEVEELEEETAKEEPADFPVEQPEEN
UniProt Q92610: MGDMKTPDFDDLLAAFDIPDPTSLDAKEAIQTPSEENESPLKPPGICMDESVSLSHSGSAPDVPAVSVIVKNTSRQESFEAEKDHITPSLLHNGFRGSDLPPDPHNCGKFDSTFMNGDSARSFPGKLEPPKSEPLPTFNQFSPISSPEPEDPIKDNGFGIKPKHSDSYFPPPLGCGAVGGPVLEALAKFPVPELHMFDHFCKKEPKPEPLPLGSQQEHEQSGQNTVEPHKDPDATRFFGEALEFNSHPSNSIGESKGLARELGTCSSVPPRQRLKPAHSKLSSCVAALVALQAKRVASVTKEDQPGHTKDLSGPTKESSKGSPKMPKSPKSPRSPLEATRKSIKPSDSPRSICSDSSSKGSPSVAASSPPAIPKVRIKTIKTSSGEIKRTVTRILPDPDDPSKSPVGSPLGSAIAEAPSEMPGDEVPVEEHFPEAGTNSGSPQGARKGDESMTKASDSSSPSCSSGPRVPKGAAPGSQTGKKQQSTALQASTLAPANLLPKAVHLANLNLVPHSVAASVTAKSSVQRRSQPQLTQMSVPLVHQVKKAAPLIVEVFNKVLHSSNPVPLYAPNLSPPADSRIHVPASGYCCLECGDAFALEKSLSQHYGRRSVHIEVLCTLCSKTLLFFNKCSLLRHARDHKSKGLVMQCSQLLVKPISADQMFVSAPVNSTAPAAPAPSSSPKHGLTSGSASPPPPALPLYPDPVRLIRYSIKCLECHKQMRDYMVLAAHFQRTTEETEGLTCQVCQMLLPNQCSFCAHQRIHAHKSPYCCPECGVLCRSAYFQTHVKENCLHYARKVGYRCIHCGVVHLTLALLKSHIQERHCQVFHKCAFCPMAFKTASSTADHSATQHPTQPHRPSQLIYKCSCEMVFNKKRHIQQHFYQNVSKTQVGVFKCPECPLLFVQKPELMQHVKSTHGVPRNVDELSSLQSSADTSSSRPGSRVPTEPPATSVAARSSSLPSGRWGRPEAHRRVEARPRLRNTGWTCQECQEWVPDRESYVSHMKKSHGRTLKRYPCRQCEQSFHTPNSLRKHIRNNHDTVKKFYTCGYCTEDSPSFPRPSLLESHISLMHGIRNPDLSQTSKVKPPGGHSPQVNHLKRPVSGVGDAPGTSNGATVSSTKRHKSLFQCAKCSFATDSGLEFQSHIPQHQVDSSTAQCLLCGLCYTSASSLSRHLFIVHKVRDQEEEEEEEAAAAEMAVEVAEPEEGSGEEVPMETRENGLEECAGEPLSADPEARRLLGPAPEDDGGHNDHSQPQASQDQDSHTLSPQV
UniProt Q96ME7: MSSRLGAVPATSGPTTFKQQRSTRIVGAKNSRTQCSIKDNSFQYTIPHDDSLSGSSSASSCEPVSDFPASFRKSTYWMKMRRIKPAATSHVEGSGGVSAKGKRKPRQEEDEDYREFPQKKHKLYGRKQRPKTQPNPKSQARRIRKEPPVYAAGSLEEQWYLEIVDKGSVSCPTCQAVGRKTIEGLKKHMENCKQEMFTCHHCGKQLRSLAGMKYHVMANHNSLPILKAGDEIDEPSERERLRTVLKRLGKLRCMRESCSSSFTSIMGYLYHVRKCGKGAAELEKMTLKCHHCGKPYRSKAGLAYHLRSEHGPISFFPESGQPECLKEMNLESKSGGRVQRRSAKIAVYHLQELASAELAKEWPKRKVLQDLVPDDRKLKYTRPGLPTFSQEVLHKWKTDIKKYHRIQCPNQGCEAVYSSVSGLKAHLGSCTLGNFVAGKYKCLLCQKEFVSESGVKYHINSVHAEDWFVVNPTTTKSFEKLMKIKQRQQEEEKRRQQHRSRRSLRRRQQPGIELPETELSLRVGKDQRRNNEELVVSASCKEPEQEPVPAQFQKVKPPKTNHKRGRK
UniProt O75362: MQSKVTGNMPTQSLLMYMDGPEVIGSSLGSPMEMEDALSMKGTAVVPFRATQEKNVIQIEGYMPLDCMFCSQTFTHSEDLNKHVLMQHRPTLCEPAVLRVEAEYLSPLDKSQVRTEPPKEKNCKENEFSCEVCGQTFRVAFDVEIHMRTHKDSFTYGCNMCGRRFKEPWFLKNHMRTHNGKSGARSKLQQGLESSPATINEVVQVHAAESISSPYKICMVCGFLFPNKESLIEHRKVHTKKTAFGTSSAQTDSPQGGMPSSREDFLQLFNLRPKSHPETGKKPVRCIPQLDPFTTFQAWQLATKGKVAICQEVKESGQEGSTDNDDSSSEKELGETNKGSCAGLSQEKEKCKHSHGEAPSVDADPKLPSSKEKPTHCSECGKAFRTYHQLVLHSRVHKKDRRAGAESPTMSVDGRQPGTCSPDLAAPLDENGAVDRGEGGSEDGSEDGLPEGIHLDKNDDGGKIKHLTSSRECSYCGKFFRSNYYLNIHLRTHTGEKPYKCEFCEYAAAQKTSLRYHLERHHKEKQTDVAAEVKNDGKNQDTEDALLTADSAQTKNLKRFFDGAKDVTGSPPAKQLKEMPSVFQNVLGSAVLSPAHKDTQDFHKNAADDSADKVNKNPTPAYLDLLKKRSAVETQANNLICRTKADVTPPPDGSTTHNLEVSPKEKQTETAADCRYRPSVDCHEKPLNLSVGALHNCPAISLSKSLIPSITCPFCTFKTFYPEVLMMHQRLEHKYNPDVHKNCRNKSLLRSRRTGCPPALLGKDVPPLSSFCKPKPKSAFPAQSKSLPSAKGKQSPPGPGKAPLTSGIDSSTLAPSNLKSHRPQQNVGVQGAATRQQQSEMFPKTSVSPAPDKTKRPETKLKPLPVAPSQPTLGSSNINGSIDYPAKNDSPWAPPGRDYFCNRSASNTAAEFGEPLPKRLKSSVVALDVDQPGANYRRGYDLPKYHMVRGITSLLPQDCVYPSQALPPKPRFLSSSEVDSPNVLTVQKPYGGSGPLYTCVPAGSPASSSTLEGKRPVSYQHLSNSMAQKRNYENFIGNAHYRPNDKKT
UniProt Q9ULU4: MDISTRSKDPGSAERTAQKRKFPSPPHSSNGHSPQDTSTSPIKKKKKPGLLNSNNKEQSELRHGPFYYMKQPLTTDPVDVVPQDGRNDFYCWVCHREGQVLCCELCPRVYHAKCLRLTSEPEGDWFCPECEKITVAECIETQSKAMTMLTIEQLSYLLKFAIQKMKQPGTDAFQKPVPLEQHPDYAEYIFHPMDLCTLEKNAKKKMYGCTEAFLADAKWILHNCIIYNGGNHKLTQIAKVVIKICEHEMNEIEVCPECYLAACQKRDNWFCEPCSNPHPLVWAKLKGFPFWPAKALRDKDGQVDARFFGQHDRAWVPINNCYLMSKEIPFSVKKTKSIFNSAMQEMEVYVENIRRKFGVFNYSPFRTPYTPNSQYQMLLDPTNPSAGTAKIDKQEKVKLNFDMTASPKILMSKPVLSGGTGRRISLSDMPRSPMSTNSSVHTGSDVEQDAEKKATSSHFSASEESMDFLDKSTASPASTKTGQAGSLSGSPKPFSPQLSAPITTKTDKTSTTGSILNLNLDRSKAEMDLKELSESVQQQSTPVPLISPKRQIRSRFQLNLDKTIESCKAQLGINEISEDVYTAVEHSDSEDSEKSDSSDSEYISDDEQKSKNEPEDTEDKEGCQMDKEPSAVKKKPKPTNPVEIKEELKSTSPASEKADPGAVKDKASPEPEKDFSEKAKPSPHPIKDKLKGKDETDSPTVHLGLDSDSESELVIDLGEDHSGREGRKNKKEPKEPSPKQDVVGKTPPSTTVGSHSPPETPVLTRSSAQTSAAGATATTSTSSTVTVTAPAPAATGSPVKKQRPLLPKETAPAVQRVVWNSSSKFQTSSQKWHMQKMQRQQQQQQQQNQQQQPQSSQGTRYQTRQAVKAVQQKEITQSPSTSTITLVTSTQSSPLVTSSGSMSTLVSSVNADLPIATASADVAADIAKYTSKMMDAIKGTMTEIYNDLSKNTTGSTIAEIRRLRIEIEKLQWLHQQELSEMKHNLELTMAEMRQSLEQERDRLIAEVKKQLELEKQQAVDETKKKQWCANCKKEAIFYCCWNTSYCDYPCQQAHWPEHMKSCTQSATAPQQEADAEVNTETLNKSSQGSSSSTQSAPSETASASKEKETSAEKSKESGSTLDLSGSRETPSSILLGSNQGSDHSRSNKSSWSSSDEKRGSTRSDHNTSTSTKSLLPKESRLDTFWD

These targets were tested with CC1Cc2ccccc2N1C(=O)C1CCCN(C1)C(=O)CCl (mixture of isomers) [TRIM25 ligand 11 (diastereomer mixture)] (assay: probe-labelled cysteine peptide fold change vs DMSO (competition) (log2 fold change); higher = less target engagement (more negative = stronger competition)). Details: 10 µM; THP-1; incubation time: 4 h.
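Note: competitive chemoproteomic profiling in live THP-1 cells with an iodoacetamide desthiobiotin (IA-DTB) probe, comparing probe-labelled peptide intensities in compound-treated cells against DMSO-treated controls.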

In order of falling “probe-labelled cysteine peptide fold change” value:
1. ZNF106_Q9H2Y7_22_DISHECR (UniProt Q9H2Y7)  0.339
2. ZNF524_Q96C55_161_HCNIHAGLRPFR (UniProt Q96C55)  0.188
3. ZNF451_Q9Y4E5_741_CLQIMLDK (UniProt Q9Y4E5)  0.154
4. ZNF316_A6NFI3_861_CADCGR (UniProt A6NFI3)  0.139
5. ZMYM3_Q14202_1197_VEEEHLWECK (UniProt Q14202)  0.135
6. ZNF326_Q5BKZ1_12_MDFEDDYTHSACR (UniProt Q5BKZ1)  0.121
7. ZMYM3_Q14202_501_VYPCVWCK (UniProt Q14202)  0.104
8. ZMYND11_Q15326_258_DTCHELDELQLCK (UniProt Q15326)  0.0905
9. ZNF280D_Q6N043_323_CFSCLK (UniProt Q6N043)  0.0838
10. ZNF592_Q92610_648_GLVMQCSQLLVK (UniProt Q92610)  0.0751
11. ZMIZ2_Q8NF64_471_CYHHEDR (UniProt Q8NF64)  0.0683
12. ZNF512_Q96ME7_324_SEHGPISFFPESGQPECLK (UniProt Q96ME7)  0.0655
13. ZNF512_Q96ME7_540_NNEELVVSASCK (UniProt Q96ME7)  0.0591
14. ZFR_Q96KR1_844+856_CAVSEAAIILNSCVEPK (UniProt Q96KR1)  0.0475
15. ZFPL1_O95159_70_LVCYDLFHWACLNER (UniProt O95159)  0.038
16. ZNF106_Q9H2Y7_457_SPLLPCPATK (UniProt Q9H2Y7)  0.0293
17. ZNF598_Q86UK7_119_QLLQHECPR (UniProt Q86UK7)  0.0152
18. ZMYM3_Q14202_968_ASSDLCDLVSNQSAEGLLEDCDLFGPAR (UniProt Q14202)  0.0145
19. ZNF207_O43670_54_LYTGPGLAIHCMQVHK (UniProt O43670)  0.011
20. ZMYM3_Q14202_1326_SCIAESPLWYSVIPMDR (UniProt Q14202)  0.00722
21. ZNF592_Q92610_265_ELGTCSSVPPR (UniProt Q92610)  0.00311
22. ZNF124_Q15973_292+295_THIAQKPYVCNNCGK (UniProt Q15973)  -0.00504
23. ZNF217_O75362_641_SAVETQANNLICR (UniProt O75362)  -0.011
24. ZGRF1_Q86YA3_2008_EIIILSCVR (UniProt Q86YA3)  -0.044
25. ZMYND8_Q9ULU4_130_LTSEPEGDWFCPECEK (UniProt Q9ULU4)  -0.0508
26. ZNF326_Q5BKZ1_314+317_MAFTCSFCK (UniProt Q5BKZ1)  -0.0558
27. ZNF217_O75362_697_PLNLSVGALHNCPAISLSK (UniProt O75362)  -0.0727
28. ZNF592_Q92610_201_FPVPELHMFDHFCK (UniProt Q92610)  -0.0756
29. ZNF592_Q92610_463_ASDSSSPSCSSGPR (UniProt Q92610)  -0.0788
30. ZNF280C_Q8ND82_388_ICELSFETEHILLQHMK (UniProt Q8ND82)  -0.0807
31. ZNF330_Q9Y3S2_67+70_LPICAQCGK (UniProt Q9Y3S2)  -0.0921
32. ZFYVE16_Q7Z3T8_863_QPGVEGLCSK (UniProt Q7Z3T8)  -0.128
33. ZFYVE1_Q9HBF4_45_CEEELHRQER (UniProt Q9HBF4)  -0.129
34. ZNF460_Q14592_450_PYVCIQCGK (UniProt Q14592)  -0.141
35. ZNF280D_Q6N043_449_NLLCPFCLK (UniProt Q6N043)  -0.143
36. ZFAND3_Q9H8U3_192_LPEQHDCTFDHMGR (UniProt Q9H8U3)  -0.153
37. ZMYND8_Q9ULU4_567_TIESCK (UniProt Q9ULU4)  -0.191
38. ZFP91_Q96JP5_313+318_CEMEGCGTVLAHPR (UniProt Q96JP5)  -0.193
